Assay results published in paper PMC8871863, “Initiator-Directed Transcription: Fission Yeast Nmtl Initiator Directs Preinitiation Complex Formation and Transcriptional Initiation” (Genes, 2022).

Biological target: TAF1 (S. pombe (endogenous in whole-cell extract))
Experiment: immunodepletion of extract on anti-TAF1 Sepharose, Western blot of the depleted extract; whole-cell extract of the TAP-tagged Med7 strain over a column of rabbit anti-TAF1 (1 mg/mL) crosslinked to CNBr-activated Sepharose; depleted extract blotted

binding: binds
B1: TAF5 (protein, UniProt O13282 1-643)
chain: MSATNGPQPQDLNRIVLDYLAKKGYSRTEAMLRLEASGSGVSVEEKLKSIEETPDAYTHTYTILRDWVDSSLELYKAELHRILFPIFVHSYLNLLSQDHYEAAKQFYELFKDDHTDLHDFDVKNLKSLSLPSHVAEDRTAQQYRQNKYQLHFSRITFDLLLHFLFENVSNGGSIIIKLINQHIDIHIVPGRPTVLENAKVINEQEGITGQSFERGDAQLQPVKLQQMPMDKEMEKIVEMDLEEEDMMHQNDPNNQSPKLLKEFRKLHEPNAEDAPSRDYIPLPPHKGVDILSEVEAVKDWSKRLHLGPRASLPSVCMYTFHHTNNNMNCAEFSPDSTMIACGFQESYIRLWSIKADKKSLPKSTSVEDSDGSVRLLSHSGPVYGTTFSPDNKYLLSCSEDASARLWSVDTKTALVAYKGHTGPVWDVAFGPFGHYFATASHDQTAQLWSCDHIYPLRVFAGHLSDVDCVTFHPNSAYVLTGSSDKTCRLWDVHRGHSVRVFNGHTQPVTAVAIAPDGHTMASADSEGLIHLWDIGTGRRIKTMRGHRGNIYSLSFSRESTVLVSGGSDCTVRAWDVFKTNYNNPVSSSLTGSVVTPFSAKTSTFNEVNWSTSPDQMVALYTKQTPIFNVSFTRRNLCLAISVS

These are yes or no findings as the source states them, for the method shown. A result given as binding can be weak or reduced; the word gives no strength.
